In US20110229560A1:
These are yes or no findings as the source states them, for the method shown. Binding seen in cells or lysates may run through a third protein. Some entries that bind do so weakly or less than the wild type. Where a sequence is shown, tags or fusion partners need not be part of it.

The chains behind the UniProt entries cited, without tags or fusion partners. Where a name states a change or a piece, a line headed by the entry shows the natural chain unless it says otherwise.
UniProt Q86WI3: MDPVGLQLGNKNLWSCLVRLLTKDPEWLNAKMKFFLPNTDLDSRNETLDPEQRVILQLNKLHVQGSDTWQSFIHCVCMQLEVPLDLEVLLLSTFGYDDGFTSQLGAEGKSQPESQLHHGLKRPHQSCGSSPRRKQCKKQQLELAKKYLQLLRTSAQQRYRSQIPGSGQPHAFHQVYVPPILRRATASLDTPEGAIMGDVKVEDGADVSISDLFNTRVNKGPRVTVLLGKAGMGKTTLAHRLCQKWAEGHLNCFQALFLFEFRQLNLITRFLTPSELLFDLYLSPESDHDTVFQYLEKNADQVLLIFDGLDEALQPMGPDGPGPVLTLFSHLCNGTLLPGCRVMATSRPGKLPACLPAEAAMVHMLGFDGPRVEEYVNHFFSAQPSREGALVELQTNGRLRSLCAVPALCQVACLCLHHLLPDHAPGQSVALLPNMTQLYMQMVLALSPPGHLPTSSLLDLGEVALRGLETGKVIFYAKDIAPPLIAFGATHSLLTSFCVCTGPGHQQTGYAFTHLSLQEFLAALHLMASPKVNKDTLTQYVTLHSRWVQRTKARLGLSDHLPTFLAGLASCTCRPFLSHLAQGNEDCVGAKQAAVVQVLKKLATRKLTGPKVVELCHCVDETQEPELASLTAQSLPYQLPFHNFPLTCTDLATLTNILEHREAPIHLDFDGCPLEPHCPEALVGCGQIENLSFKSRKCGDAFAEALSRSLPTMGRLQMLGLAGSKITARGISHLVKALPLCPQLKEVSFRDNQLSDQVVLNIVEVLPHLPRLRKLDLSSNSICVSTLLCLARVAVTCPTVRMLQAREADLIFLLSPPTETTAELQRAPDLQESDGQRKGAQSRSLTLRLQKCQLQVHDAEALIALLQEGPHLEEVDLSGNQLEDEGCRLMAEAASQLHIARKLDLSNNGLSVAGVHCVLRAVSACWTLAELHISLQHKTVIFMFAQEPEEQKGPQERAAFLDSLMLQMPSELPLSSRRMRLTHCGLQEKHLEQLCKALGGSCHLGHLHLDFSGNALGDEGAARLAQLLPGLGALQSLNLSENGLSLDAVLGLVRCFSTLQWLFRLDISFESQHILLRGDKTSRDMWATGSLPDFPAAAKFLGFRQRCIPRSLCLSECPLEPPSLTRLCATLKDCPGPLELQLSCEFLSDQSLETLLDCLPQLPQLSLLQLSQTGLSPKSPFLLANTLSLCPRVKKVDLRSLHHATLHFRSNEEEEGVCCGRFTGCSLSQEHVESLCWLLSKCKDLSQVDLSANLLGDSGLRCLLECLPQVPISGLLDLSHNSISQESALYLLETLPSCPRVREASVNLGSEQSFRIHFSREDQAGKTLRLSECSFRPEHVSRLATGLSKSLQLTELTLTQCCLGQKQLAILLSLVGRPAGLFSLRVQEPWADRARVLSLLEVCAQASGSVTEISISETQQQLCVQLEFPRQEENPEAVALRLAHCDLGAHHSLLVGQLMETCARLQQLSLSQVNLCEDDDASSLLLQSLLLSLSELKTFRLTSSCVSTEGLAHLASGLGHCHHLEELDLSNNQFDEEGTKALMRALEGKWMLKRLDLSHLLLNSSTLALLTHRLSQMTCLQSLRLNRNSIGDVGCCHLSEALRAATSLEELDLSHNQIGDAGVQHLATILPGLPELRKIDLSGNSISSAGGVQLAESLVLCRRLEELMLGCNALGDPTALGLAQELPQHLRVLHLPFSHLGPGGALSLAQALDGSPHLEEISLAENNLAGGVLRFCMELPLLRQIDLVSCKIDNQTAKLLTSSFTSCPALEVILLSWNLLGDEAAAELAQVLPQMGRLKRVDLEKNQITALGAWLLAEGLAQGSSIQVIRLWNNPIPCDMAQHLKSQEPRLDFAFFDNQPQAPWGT

How the values were obtained:
[1] = target: T1, IKKβ-KD (amino-terminal kinase domain construct of IKKβ, Flag-tagged) (UniProt O14920); assay: co-IP (anti-Flag beads) and Western blot (anti-HA), transfected 293T cells, FIG. 7E
T1 sequence (looked up): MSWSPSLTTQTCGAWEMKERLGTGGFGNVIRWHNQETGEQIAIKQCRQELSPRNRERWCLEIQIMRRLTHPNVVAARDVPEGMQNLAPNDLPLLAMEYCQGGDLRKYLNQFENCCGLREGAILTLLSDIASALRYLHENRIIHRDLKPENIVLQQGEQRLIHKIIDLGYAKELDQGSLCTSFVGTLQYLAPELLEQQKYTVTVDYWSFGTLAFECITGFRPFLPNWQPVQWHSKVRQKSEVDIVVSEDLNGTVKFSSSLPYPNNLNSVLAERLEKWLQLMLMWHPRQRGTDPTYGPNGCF

[2] = target: T1, IKKβ-KD (amino-terminal kinase domain construct of IKKβ, Flag-tagged); assay: restatement of the co-IP results
[3] = target: T2, Flag-tagged IKKβ (full length) (UniProt O14920); assay: restatement of the co-IP results
T2 sequence (looked up): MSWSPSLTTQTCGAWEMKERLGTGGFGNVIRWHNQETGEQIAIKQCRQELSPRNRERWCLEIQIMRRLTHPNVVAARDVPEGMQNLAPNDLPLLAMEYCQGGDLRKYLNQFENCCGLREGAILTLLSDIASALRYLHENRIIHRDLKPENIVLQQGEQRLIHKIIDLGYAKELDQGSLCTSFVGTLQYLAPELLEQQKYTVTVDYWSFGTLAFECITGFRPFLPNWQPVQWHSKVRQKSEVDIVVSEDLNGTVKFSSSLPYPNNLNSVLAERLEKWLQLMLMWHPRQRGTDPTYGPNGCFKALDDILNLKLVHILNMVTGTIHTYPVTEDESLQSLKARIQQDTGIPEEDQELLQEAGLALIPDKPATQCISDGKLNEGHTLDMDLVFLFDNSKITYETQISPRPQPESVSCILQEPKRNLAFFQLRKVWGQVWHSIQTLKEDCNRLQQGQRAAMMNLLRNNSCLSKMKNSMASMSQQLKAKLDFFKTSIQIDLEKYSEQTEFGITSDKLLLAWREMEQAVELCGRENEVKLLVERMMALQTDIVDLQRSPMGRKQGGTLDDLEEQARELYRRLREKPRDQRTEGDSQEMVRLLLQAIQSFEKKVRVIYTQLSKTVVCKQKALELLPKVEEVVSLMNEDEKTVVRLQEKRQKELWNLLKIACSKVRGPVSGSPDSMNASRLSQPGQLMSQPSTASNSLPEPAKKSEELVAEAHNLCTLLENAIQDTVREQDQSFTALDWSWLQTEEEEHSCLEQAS

Flag-tagged IKKα = target: T3, Flag-tagged IKKα (UniProt O15111); assay: co-IP (anti-HA beads) and Western blot (anti-Flag), transfected 293T cells
T3 sequence (looked up): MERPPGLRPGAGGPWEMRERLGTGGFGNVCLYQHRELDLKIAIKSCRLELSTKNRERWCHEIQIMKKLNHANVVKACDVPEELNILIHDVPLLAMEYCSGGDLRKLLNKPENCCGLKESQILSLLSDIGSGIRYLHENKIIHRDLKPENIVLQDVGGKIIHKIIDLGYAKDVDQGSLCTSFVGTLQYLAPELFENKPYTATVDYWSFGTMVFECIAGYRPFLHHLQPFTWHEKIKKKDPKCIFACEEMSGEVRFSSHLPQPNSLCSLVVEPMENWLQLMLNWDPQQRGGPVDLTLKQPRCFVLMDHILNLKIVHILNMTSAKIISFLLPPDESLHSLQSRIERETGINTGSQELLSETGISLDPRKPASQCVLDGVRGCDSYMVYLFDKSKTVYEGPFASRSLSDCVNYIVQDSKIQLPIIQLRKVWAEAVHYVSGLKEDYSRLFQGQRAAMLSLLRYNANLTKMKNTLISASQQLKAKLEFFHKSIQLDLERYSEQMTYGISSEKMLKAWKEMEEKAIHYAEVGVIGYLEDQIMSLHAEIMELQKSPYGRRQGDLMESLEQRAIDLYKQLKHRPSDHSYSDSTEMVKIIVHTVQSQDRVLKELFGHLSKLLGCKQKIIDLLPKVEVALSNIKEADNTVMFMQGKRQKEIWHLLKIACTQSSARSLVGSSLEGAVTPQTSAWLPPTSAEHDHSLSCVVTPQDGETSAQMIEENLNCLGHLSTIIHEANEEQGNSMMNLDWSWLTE

[4] = target: T2, Flag-tagged IKKβ (full length); assay: as above
Flag-RIG-I = target: T4, Flag-RIG-I (UniProt O95786); assay: as above
T4 sequence (looked up): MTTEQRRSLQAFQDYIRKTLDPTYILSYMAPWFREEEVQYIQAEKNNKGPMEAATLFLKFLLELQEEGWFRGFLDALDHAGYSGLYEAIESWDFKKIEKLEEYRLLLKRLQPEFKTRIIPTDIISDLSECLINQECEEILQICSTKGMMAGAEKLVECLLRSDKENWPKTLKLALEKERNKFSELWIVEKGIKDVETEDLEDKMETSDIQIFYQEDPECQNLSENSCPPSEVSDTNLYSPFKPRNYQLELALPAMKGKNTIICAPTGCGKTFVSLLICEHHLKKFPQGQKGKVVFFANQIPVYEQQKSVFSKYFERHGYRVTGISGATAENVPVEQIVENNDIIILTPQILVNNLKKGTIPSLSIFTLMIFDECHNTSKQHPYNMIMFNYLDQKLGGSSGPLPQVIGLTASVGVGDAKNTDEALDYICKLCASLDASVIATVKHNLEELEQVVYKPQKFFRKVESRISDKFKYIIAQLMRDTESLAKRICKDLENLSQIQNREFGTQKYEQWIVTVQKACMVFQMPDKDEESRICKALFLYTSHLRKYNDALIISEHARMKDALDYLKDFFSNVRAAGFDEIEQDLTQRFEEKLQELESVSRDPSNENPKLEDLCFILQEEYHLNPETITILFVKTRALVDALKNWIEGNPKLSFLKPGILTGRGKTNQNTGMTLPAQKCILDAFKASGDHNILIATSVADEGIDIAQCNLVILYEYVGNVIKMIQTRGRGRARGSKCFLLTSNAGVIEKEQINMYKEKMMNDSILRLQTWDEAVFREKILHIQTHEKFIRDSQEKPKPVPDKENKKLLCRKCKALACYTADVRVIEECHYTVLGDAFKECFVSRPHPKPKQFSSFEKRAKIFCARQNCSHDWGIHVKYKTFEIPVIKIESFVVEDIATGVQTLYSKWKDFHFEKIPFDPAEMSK

[5] = target: T2, Flag-tagged IKKβ (full length); assay: co-IP (anti-Flag beads) and Western blot (anti-HA), transfected 293T cells

binding [1]: binds
binding [2]: binds
binding [3]: binds
binding (Flag-tagged IKKα): binds
binding [4]: binds
binding (Flag-RIG-I): binds
binding [5]: binds
Substance: HA-tagged NLRC5 (human NLRC5, full length) (from UniProt Q86WI3 1-1866)
